At least one structure is not confirmed: it was looked up by name or label, or the drawing left a doubt.
Tested on: Nx mice
Test: Subtotal nephrectomy (Nx) mouse model of CKD, curative study, interstitial fibrosis by PSR (Example 2)
Format: in vivo
Details: 30 mg/Kg/day QD oral gavage for 3 weeks, initiated 5 weeks after Nx, listed as OCA
Text: Analysis has been focused on an experimental model of CKD, i.e. the subtotal nephrectomy (Nx). In this model, a “curative study” was investigated, i.e. treatments have been initiated 5 weeks after Nx, when lesions are already developed.
54 nine-week old FVB female mice have been investigated, of which 6 have been submitted to sham operation (controls) and 48 to subtotal nephrectomy (Nx), which consist in the excision of the right kidney and the two poles of the left kidney to reach 75% reduction of total renal mass. Surgery was performed under xylazine (Rompun 2%; Bayer, Leverkusen, France) (6 μg/g of body weight) and ketamine (Clorketam 1000; Vetoquinol SA, Lirre, France) (120 μg/g of body weight) anesthesia. […]
Kidneys were fixed in 4% paraformaldehyde, paraffin embedded, and 4-μm sections were stained with picrosirius red (PSR). […] All sections were evaluated by a pathologist who was blinded to the treatment groups.
Staining of all kidney samples with picrosirius red (PSR) was performed, and red intensity above a defined threshold was defined as fibrosis. For interstitial fibrosis, at least 10 to 15 random selected fields (magnification ×200) across the corticomedullary junction were analyzed per each kidney section, and the results were expressed as percentages of the total area of the selected fields.

With `CC[C@H]1[C@@H](O)[C@@H]2[C@H](CC[C@]3(C)[C@@H]([C@H](C)CCC(=O)O)CC[C@@H]23)[C@@]2(C)CC[C@@H](O)C[C@@H]12` [Obeticholic acid, reference compound] the “renal interstitial fibrosis (picrosirius red staining positive areas)” value was “not observed”.

From US20230165853A1, “METHOD FOR TREATING CHRONIC KIDNEY DISEASES” (ENYO PHARMA, priority 2021, published 2023)
